Results are given in words; binding and its absence hold for the method and conditions named. Binding seen in cells or lysates may run through a third protein. Some entries that bind do so weakly or less than the wild type. For some of these results: Tags and fused reporters may be left off the sequences shown.
T1: Myc-Flag-tagged NRBP2 (human) (UniProt Q9NSY0)
T1 sequence: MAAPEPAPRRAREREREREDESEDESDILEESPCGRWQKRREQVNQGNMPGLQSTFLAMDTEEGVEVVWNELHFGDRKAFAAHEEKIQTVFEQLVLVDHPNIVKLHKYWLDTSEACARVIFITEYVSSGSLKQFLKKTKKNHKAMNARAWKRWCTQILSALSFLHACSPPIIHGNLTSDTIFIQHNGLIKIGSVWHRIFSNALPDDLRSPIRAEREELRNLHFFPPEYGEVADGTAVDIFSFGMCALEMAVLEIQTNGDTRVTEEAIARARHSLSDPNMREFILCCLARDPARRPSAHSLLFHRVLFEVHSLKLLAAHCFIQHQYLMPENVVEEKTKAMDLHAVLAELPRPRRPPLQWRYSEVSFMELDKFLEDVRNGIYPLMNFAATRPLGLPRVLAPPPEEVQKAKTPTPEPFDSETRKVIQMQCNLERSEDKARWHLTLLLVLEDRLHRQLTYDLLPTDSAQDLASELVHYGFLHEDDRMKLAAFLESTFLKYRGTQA

Sequences of proteins named here, by UniProt entry; tags and fusion partners are left off.
UniProt Q9UHY1: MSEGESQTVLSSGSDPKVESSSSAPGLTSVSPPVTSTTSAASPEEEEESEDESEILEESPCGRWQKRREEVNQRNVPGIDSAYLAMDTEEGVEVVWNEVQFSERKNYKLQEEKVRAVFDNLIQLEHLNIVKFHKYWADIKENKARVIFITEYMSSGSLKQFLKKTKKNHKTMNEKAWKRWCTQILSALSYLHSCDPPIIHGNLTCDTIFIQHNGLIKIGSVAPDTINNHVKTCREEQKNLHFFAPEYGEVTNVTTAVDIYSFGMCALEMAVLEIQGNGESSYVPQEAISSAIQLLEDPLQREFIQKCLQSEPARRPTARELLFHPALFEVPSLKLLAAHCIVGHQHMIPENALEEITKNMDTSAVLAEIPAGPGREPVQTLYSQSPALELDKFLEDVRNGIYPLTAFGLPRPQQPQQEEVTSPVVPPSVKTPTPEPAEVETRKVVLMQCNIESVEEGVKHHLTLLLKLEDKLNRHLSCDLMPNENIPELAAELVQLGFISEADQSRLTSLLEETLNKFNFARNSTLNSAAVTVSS
UniProt Q9UN81: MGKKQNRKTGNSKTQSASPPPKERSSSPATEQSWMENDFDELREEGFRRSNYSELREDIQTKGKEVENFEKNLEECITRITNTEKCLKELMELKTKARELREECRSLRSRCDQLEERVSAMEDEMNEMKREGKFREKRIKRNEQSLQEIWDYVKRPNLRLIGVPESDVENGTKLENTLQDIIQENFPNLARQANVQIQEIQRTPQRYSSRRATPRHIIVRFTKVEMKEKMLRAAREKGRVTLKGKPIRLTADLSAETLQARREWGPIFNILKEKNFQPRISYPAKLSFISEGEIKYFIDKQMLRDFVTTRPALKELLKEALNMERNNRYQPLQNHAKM
UniProt Q13283: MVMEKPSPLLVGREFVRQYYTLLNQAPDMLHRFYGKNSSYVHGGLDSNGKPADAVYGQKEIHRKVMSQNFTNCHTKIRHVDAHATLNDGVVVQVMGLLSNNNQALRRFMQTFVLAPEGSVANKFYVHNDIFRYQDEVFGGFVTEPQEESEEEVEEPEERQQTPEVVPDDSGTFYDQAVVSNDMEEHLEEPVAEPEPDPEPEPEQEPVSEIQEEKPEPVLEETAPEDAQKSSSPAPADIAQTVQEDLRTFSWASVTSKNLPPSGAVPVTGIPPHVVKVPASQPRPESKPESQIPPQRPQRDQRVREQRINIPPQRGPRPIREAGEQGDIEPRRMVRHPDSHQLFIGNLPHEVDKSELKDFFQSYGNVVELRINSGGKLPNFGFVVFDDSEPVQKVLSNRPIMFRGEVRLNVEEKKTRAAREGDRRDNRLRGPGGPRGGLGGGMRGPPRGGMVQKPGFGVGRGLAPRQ
UniProt P67809: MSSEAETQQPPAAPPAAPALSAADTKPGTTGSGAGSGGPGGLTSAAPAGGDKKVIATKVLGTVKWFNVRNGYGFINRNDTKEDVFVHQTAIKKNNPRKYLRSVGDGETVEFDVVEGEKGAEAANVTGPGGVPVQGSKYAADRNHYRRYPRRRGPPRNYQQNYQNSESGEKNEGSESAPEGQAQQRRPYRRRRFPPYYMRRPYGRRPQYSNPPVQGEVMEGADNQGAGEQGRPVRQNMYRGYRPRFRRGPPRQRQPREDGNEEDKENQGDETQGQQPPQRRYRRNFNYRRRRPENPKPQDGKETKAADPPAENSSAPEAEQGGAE

T2: NRBP2 (construct of Supplementary Fig. 1c and 5a, not given) (human) (UniProt Q9NSY0)
T2 sequence: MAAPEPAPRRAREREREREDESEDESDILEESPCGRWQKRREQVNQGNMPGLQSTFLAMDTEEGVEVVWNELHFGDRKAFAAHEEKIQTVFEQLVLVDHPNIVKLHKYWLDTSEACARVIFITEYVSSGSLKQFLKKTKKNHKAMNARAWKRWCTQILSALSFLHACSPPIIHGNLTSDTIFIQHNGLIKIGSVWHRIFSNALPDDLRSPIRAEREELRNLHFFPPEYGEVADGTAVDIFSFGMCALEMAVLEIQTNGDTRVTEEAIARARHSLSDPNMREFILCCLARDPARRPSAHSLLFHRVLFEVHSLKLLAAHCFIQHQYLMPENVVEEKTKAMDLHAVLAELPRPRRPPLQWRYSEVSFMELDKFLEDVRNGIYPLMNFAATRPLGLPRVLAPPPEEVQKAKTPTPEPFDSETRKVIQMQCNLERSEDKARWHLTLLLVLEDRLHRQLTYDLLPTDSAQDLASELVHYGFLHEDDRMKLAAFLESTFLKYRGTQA


Tests used:
[1] = biological target: Myc-Flag-tagged NRBP1 (human) (UniProt Q9UHY1); assay: co-IP; MCF-7 cells transfected with Myc-Flag-NRBP1 or Myc-Flag-NRBP2; lysate incubated with Flag antibody; endogenous ORF1p detected by Western blot
[2] = biological target: T1, Myc-Flag-tagged NRBP2 (human); assay: as above
[3] = biological target: NRBP1 (construct of Supplementary Fig. 1c and 5a, not given) (human) (UniProt Q9UHY1); assay: co-IP; Supplementary Fig. 1c; bait, tags and cells not shown
[4] = biological target: T2, NRBP2 (construct of Supplementary Fig. 1c and 5a, not given) (human); assay: as above
[5] = biological target: Flag-tagged ORF1p (human) (UniProt Q9UN81); assay: co-IP; HeLa cells; Flag-tagged ORF1p precipitated, NRBP1-Myc or NRBP2-Myc detected; CHAPS-based buffer; lysate treated with 50 U/mL RNasin or 40 ug/mL RNase A, binding with or without RNA
[6] = biological target: Flag-NRBP1 (full-length NRBP1) (human) (UniProt Q9UHY1); assay: co-IP; HEK293T cells; Flag antibody used to pull down Flag-NRBP1; co-precipitated NRBP1 or NRBP2 variants by blot; CHAPS-based buffer

Row | binding [3] | binding [4] | Molecule | also measured
1 | – | – | L1 open-reading frame 1 protein (ORF1p), endogenous (from UniProt Q9UN81 1-338) | binding [1]: binds; binding [2]: binds
2 | binds | binds | G3BP1 (from UniProt Q13283 1-466) | –
3 | binds | binds | YBX1 (from UniProt P67809 1-324) | –
4 | – | – | NRBP1-Myc (from UniProt Q9UHY1 1-535) | binding [5]: binds
5 | binds | binds | UPF1 (protein, UniProt Q92900 1-1129) MSVEAYGPSSQTLTFLDTEEAELLGADTQGSEFEFTDFTLPSQTQTPPGGPGGPGGGGAGGPGGAGAGAAAGQLDAQVGPEGILQNGAVDDSVAKTSQLLAELNFEEDEEDTYYTKDLPIHACSYCGIHDPACVVYCNTSKKWFCNGRGNTSGSHIVNHLVRAKCKEVTLHKDGPLGETVLECYNCGCRNVFLLGFIPAKADSVVVLLCRQPCASQSSLKDINWDSSQWQPLIQDRCFLSWLVKIPSEQEQLRARQITAQQINKLEELWKENPSATLEDLEKPGVDEEPQHVLLRYEDAYQYQNIFGPLVKLEADYDKKLKESQTQDNITVRWDLGLNKKRIAYFTLPKTDSGNEDLVIIWLRDMRLMQGDEICLRYKGDLAPLWKGIGHVIKVPDNYGDEIAIELRSSVGAPVEVTHNFQVDFVWKSTSFDRMQSALKTFAVDETSVSGYIYHKLLGHEVEDVIIKCQLPKRFTAQGLPDLNHSQVYAVKTVLQRPLSLIQGPPGTGKTVTSATIVYHLARQGNGPVLVCAPSNIAVDQLTEKIHQTGLKVVRLCAKSREAIDSPVSFLALHNQIRNMDSMPELQKLQQLKDETGELSSADEKRYRALKRTAERELLMNADVICCTCVGAGDPRLAKMQFRSILIDESTQATEPECMVPVVLGAKQLILVGDHCQLGPVVMCKKAAKAGLSQSLFERLVVLGIRPIRLQVQYRMHPALSAFPSNIFYEGSLQNGVTAADRVKKGFDFQWPQPDKPMFFYVTQGQEEIASSGTSYLNRTEAANVEKITTKLLKAGAKPDQIGIITPYEGQRSYLVQYMQFSGSLHTKLYQEVEIASVDAFQGREKDFIILSCVRANEHQGIGFLNDPRRLNVALTRARYGVIIVGNPKALSKQPLWNHLLNYYKEQKVLVEGPLNNLRESLMQFSKPRKLVNTINPGARFMTTAMYDAREAIIPGSVYDRSSQGRPSSMYFQTHDQIGMISAGPSHVAAMNIPIPFNLVMPPMPPPGYFGQANGPAAGRGTPKGKTGRGGRQKNRFGLPGPSQTNLPNSQASQDVASQPFSQGALTQGYISMSQPSQMSQPGLSQPELSQDSYLGDEFKSQIDVALSQDSTYQGERAYQHGGVTGLSQY | –
6 | – | – | NRBP2-Myc (protein, UniProt Q9NSY0 1-501) MAAPEPAPRRAREREREREDESEDESDILEESPCGRWQKRREQVNQGNMPGLQSTFLAMDTEEGVEVVWNELHFGDRKAFAAHEEKIQTVFEQLVLVDHPNIVKLHKYWLDTSEACARVIFITEYVSSGSLKQFLKKTKKNHKAMNARAWKRWCTQILSALSFLHACSPPIIHGNLTSDTIFIQHNGLIKIGSVWHRIFSNALPDDLRSPIRAEREELRNLHFFPPEYGEVADGTAVDIFSFGMCALEMAVLEIQTNGDTRVTEEAIARARHSLSDPNMREFILCCLARDPARRPSAHSLLFHRVLFEVHSLKLLAAHCFIQHQYLMPENVVEEKTKAMDLHAVLAELPRPRRPPLQWRYSEVSFMELDKFLEDVRNGIYPLMNFAATRPLGLPRVLAPPPEEVQKAKTPTPEPFDSETRKVIQMQCNLERSEDKARWHLTLLLVLEDRLHRQLTYDLLPTDSAQDLASELVHYGFLHEDDRMKLAAFLESTFLKYRGTQA | binding [5]: binds
7 | – | – | wild-type NRBP2 (full length), co-IP with NRBP1 (protein, UniProt Q9NSY0 1-501) MAAPEPAPRRAREREREREDESEDESDILEESPCGRWQKRREQVNQGNMPGLQSTFLAMDTEEGVEVVWNELHFGDRKAFAAHEEKIQTVFEQLVLVDHPNIVKLHKYWLDTSEACARVIFITEYVSSGSLKQFLKKTKKNHKAMNARAWKRWCTQILSALSFLHACSPPIIHGNLTSDTIFIQHNGLIKIGSVWHRIFSNALPDDLRSPIRAEREELRNLHFFPPEYGEVADGTAVDIFSFGMCALEMAVLEIQTNGDTRVTEEAIARARHSLSDPNMREFILCCLARDPARRPSAHSLLFHRVLFEVHSLKLLAAHCFIQHQYLMPENVVEEKTKAMDLHAVLAELPRPRRPPLQWRYSEVSFMELDKFLEDVRNGIYPLMNFAATRPLGLPRVLAPPPEEVQKAKTPTPEPFDSETRKVIQMQCNLERSEDKARWHLTLLLVLEDRLHRQLTYDLLPTDSAQDLASELVHYGFLHEDDRMKLAAFLESTFLKYRGTQA | binding [6]: binds
8 | binds | binds | MOV10 (protein, UniProt Q9HCE1 1-1003) MPSKFSCRQLREAGQCFESFLVVRGLDMETDRERLRTIYNRDFKISFGTPAPGFSSMLYGMKIANLAYVTKTRVRFFRLDRWADVRFPEKRRMKLGSDISKHHKSLLAKIFYDRAEYLHGKHGVDVEVQGPHEARDGQLLIRLDLNRKEVLTLRLRNGGTQSVTLTHLFPLCRTPQFAFYNEDQELPCPLGPGECYELHVHCKTSFVGYFPATVLWELLGPGESGSEGAGTFYIARFLAAVAHSPLAAQLKPMTPFKRTRITGNPVVTNRIEEGERPDRAKGYDLELSMALGTYYPPPRLRQLLPMLLQGTSIFTAPKEIAEIKAQLETALKWRNYEVKLRLLLHLEELQMEHDIRHYDLESVPMTWDPVDQNPRLLTLEVPGVTESRPSVLRGDHLFALLSSETHQEDPITYKGFVHKVELDRVKLSFSMSLLSRFVDGLTFKVNFTFNRQPLRVQHRALELTGRWLLWPMLFPVAPRDVPLLPSDVKLKLYDRSLESNPEQLQAMRHIVTGTTRPAPYIIFGPPGTGKTVTLVEAIKQVVKHLPKAHILACAPSNSGADLLCQRLRVHLPSSIYRLLAPSRDIRMVPEDIKPCCNWDAKKGEYVFPAKKKLQEYRVLITTLITAGRLVSAQFPIDHFTHIFIDEAGHCMEPESLVAIAGLMEVKETGDPGGQLVLAGDPRQLGPVLRSPLTQKHGLGYSLLERLLTYNSLYKKGPDGYDPQFITKLLRNYRSHPTILDIPNQLYYEGELQACADVVDRERFCRWAGLPRQGFPIIFHGVMGKDEREGNSPSFFNPEEAATVTSYLKLLLAPSSKKGKARLSPRSVGVISPYRKQVEKIRYCITKLDRELRGLDDIKDLKVGSVEEFQGQERSVILISTVRSSQSFVQLDLDFNLGFLKNPKRFNVAVTRAKALLIIVGNPLLLGHDPDWKVFLEFCKENGGYTGCPFPAKLDLQQGQNLLQGLSKLSPSTSGPHSHDYLPQEREGEGGLSLQVEPEWRNEL | –

Source: PMC12254500
